PubChem BioAssay AID504784 | Drosophila RNAi Screening Center, 2011
The deposit covers about 17,000 reagents; below is a random part of those that have a named target and a result. 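Each column is one replicate's B-score; the combined score over replicates was not deposited, so single values may mislead.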 The numbers tell different reagents against one gene apart. A plus sign joins genes that one reagent is predicted to hit. Further read-outs or replicates are left out here.

Screen: 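Fly genes whose silencing alters how much lipid cells keep in droplets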 (primary screen)
System: Drosophila Kc167 embryonic cells
Knock-down reagent: long dsRNA against Drosophila genes, about 250 ng dsRNA per well
Timing: 4 days
Conditions: cells fed 400 µM oleic acid bound to BSA
Measurement: 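Microscope images give a droplet-to-nucleus area ratio, taken as log and converted to a screen-wide B-score; higher values mean greater lipid storage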
Scale: droplet/nuclear area B-score: higher = more stored lipid (overstorage)

no.	gene	reagent no.	droplet/nuclear area B-score, replicate 1
1	CG14374	1	-0.989
2	CG9522	1	2.09
3	CG31743 + CG34313	1	-0.971
4	CG31743 + CG34313	2	0.917
5	Tim10 + CG42497	1	0.854
6	Sec61beta	1	-1.87
7	Sec61beta	2	-1.08
8	DIP-kappa	1	-6.67
9	DIP-kappa	2	-0.0814
10	CG44085	1	1.07
11	CG44085	2	0.419
12	spz5	1	0.528
13	Ptr	1	0.643
14	Ptr	2	-0.203

Targets listed so far whose gene name begins with P or p:
gene	reagent no.	droplet/nuclear area B-score, replicate 1
Ptr	1	0.643
Ptr	2	-0.203

The list goes on:
no.	gene	reagent no.	droplet/nuclear area B-score, replicate 1
15	Nup98-96	1	0.092
16	Nup98-96	2	0.777
17	CG2816	1	-1.19
18	CG33282	1	-0.486
19	Hakai	1	1.19
20	TwdlH	1	0.0783
21	CG14237	1	-1.95
22	CG14237	2	0.0257
23	Pyroxd1	1	0.389
24	CG15597	1	-0.258
25	CG14803	1	0.509
26	GlcAT-P	1	-1.37
27	GlcAT-P	2	-0.386
28	Phax	1	0.209
29	CG13857	1	-0.0131
30	sano	1	-0.74
31	CG14384	1	0.689
32	Lerp	1	-1.5
33	Lerp	2	0.178
34	Lerp	3	-0.772
35	Lerp	4	-1.52
